Experimental findings from PMC5327418 are described below.

The chains behind the UniProt entries cited, without tags or fusion partners.
UniProt P32569: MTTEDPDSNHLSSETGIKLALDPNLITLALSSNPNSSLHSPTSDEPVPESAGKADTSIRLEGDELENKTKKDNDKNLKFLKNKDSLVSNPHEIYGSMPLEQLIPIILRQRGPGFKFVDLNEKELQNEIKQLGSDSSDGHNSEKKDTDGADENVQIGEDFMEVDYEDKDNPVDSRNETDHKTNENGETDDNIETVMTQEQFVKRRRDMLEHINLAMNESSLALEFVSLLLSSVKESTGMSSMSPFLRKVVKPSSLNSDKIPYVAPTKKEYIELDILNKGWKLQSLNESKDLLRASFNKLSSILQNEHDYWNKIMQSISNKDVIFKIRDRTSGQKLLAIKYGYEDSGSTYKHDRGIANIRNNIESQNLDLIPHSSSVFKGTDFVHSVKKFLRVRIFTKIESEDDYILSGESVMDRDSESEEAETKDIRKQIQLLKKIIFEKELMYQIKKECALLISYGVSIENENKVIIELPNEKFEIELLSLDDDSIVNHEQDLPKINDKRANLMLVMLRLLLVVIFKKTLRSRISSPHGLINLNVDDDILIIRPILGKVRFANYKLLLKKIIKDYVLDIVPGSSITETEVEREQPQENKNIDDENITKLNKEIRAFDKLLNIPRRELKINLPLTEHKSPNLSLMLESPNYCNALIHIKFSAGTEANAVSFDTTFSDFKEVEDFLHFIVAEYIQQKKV

These are yes or no findings as the source states them, for the method shown. Binding seen in cells or lysates may run through a third protein. These calls come from enrichment with a bait or labelling near it, and not all partners need be listed. For some assays here: A no says only that the protein was not detected with the bait. For some assays here: Tags and fused reporters may be left off the sequences shown.

Assay [1] has as its target T1, Med13-HA (S. cerevisiae (endogenous in S288c)) (UniProt P38931).
T1 sequence: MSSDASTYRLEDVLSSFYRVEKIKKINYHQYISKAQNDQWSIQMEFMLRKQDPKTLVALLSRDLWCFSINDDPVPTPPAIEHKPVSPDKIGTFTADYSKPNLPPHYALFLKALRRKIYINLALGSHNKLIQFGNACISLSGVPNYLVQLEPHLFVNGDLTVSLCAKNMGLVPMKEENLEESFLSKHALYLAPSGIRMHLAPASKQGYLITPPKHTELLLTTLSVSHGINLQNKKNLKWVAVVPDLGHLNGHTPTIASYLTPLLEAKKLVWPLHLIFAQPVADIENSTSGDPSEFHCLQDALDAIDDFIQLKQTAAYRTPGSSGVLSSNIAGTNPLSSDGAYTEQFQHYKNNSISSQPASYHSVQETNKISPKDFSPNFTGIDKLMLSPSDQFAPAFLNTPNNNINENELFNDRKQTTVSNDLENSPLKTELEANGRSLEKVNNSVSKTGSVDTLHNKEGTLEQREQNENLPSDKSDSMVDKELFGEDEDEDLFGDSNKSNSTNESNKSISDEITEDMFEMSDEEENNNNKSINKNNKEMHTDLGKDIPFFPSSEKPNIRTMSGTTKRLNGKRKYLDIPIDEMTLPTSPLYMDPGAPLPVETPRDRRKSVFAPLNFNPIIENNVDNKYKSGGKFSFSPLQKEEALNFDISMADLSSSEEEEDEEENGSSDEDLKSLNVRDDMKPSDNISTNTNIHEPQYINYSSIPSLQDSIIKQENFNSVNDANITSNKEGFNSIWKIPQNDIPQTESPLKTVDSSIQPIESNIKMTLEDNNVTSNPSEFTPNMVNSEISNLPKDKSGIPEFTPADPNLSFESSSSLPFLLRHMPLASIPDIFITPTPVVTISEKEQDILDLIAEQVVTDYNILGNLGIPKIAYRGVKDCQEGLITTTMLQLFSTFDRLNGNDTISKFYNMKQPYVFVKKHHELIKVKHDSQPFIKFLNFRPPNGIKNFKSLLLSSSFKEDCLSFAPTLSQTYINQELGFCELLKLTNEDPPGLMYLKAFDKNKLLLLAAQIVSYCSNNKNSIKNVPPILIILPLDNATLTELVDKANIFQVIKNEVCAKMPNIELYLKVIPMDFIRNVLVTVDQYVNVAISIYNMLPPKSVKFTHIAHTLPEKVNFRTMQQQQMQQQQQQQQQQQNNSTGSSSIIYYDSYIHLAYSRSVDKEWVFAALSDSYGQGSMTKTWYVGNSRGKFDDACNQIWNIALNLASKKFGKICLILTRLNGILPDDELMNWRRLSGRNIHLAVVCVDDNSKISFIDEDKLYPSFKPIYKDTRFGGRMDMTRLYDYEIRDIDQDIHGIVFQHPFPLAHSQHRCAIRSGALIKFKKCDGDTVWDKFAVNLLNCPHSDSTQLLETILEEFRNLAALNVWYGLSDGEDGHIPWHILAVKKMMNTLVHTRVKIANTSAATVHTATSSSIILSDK
Description: affinity purification with mass spectrometry; CoIP of Med13-HA (CKM subunit) under the same conditions as for Med17-HA in the MAP experiment.

The target in assay [2] is Med17-HA (S. cerevisiae (endogenous in S288c)) (UniProt P32569). Description: affinity purification with mass spectrometry; CoIP of Med17-HA on anti-HA magnetic beads from cryoground yeast lysate, 2 h at 4 °C; 20 mM HEPES pH 7.5, 300 mM KOAc, 10% glycerol, 0.01% NP-40, 6 mM MnSO4, 1 mM DTT, Cyanase nuclease; parallel control CoIP from 15N-labelled wild type cells, mixing after purification (MAP); GeLC-MS/MS, three biological replicates.

B1: Tfs2 (protein, UniProt P07273 1-309)
chain: MDSKEVLVHVKNLEKNKSNDAAVLEILHVLDKEFVPTEKLLRETKVGVEVNKFKKSTNVEISKLVKKMISSWKDAINKNKRSRQAQQHHQDHAPGNAEDKTTVGESVNGVQQPASSQSDAMKQDKYVSTKPRNSKNDGVDTAIYHHKLRDQVLKALYDVLAKESEHPPQSILHTAKAIESEMNKVNNCDTNEAAYKARYRIIYSNVISKNNPDLKHKIANGDITPEFLATCDAKDLAPAPLKQKIEEIAKQNLYNAQGATIERSVTDRFTCGKCKEKKVSYYQLQTRSADEPLTTFCTCEACGNRWKFS
Regarding B1, the binding entry in assay [1] was “no binding”; in assay [2] it was “binds”.
